{"source": "PubChem BioAssay AID485314", "about": "(National Center for Advancing Translational Sciences (NCATS), 2010)", "note": "Out of some 340,000 compounds screened, about 4,500 (1.3%) were called active. This list was built around the results that the source calls inconclusive (neither active nor inactive); the mix of calls is not that of the screen. Calls follow the shape of the dose curve; as a rule, active = well fitted inhibition curve with a large enough effect; inconclusive = small, poorly fitted or top-dose-only effect, or another doubt; inactive = no such curve, though single readings can be large or run the other way. Potencies beside an inconclusive call are fits to weak or partial responses and may not hold up. % is scaled to controls: 0 for no effect and ±100 for the full control effect; potency is read from the fitted curve at half-maximal effect."}
{"target": "DNA polymerase beta (Homo sapiens) (UniProt P06746)", "test": "qHTS Assay for Inhibitors of DNA Polymerase Beta", "conditions": "Pol beta primer extension/strand displacement, fluorescence kinetic; activity change, negative = inhibition: at 114 µM (top of the series)", "method_in_brief": "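Enzyme-only controls used 10 nM Pol beta; buffer lacking enzyme served as negative control. Compound preincubated 15 min, then 50 nM substrate added; 0 and 10 min reads at room temperature.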"}
{"smiles": "Cc1cc(N/C=C/C(=O)c2ccccc2)ccc1Br", "Potency": "inconclusive: 50.1 µM [inhibitor, single point]"}
{"smiles": "Cc1ccc(C(=O)N(c2ccccn2)C(C)c2ccco2)cc1", "note": "(stereo not drawn)", "Potency": "inconclusive: 0.112 µM [inhibitor, full curve, poor fit]"}
{"smiles": "O=C(Cc1cccs1)NC1CC(=O)N(c2ccc(F)cc2)C1", "note": "(stereo not drawn)", "Potency": "inactive"}
{"smiles": "Brc1ccc(-c2nnc(-c3ccccc3)o2)o1", "Potency": "inconclusive: 20 µM [inhibitor, full curve]"}
{"smiles": "COc1ccc(-c2nc3ccccc3s2)cc1NC(=O)c1ccccc1F", "Potency": "inconclusive: 4.47 µM [inhibitor, full curve]"}
{"smiles": "CSc1nnc(-c2cc3c(-c4ccccc4)nn(C)c3s2)n1C", "Potency": "inconclusive: 4.47 µM [inhibitor, full curve, poor fit]"}
{"smiles": "O=C(NCC1OCCCN1S(=O)(=O)c1cc(F)ccc1F)C(=O)NC1CCCC1", "note": "(stereo not drawn)", "Potency": "inconclusive: 0.891 µM [inhibitor, full curve, poor fit]"}
{"smiles": "COc1ccccc1NC(=O)C(C)N1C(=O)c2ccccc2C1=O", "note": "(stereo not drawn)", "Potency": "inconclusive: 39.8 µM [inhibitor, partial curve, poor fit]"}
{"smiles": "CCC(=O)Nc1ccc(C(=O)Cn2ncc(Cl)c(Cl)c2=O)cc1", "Potency": "inconclusive: 39.8 µM [inhibitor, single point]"}
{"smiles": "CCn1c2ccccc2c2cc(NC(C)=O)ccc21", "Potency": "inactive"}
{"smiles": "CCOc1ccc(-c2ccc(/C=C3/C(=N)N4C(C)=CSC4=NC3=O)o2)c([N+](=O)[O-])c1", "Potency": "active: 35.5 µM"}
{"smiles": "c1ccc(-n2cnc3ccccc32)nc1", "Potency": "inconclusive: 100 µM [inhibitor, single point]"}
{"smiles": "Cc1ccccc1Nc1nnc(SCC(=O)NC(=O)NCc2ccco2)s1", "Potency": "inconclusive: 25.1 µM [inhibitor, full curve, poor fit]"}
{"smiles": "Cc1ccc(OCC(=O)N2CCCC(CO)(CCOc3ccccc3)C2)cc1", "note": "(stereo not drawn)", "Potency": "inactive"}
{"smiles": "CCN(CC)CCCNC(=O)c1nn2c(C(F)(F)F)cc(-c3ccccc3)nc2c1Cl", "Potency": "inactive"}
{"smiles": "COc1ccccc1N(C)S(=O)(=O)c1ccc(Cl)c(C(=O)OCc2c(C)noc2C)c1", "Potency": "inconclusive: 20 µM [inhibitor, single point]"}
{"smiles": "O=C(CNC(=O)c1cc2c(s1)CCC2)Nc1ccccc1Br", "Potency": "inconclusive: 0.631 µM [inhibitor, full curve, poor fit]"}
{"smiles": "N/C(CS(=O)(=O)c1ccccn1)=N\\OC(=O)c1ccc(Cl)cc1", "Potency": "inconclusive: 89.1 µM [inhibitor, single point]"}
{"smiles": "O=C(N/N=C/c1cccc([N+](=O)[O-])c1)c1cc2ccccc2o1", "Potency": "inconclusive: 35.5 µM [inhibitor, single point]"}
{"smiles": "O=C(NCCO)c1cc2cc(Cl)cc(Cl)c2oc1=O", "Potency": "inactive"}
{"smiles": "Nc1[nH]nc2c1NN(c1ccc(Cl)cc1Cl)N2", "Potency": "inconclusive: 89.1 µM [inhibitor, single point]"}
{"smiles": "On1c2c(c3c4nonc4ccc31)CCCC2", "Potency": "inconclusive: 44.7 µM [inhibitor, partial curve, poor fit]"}
{"smiles": "CC(=O)N1CCc2cc(S(=O)(=O)C(C)CC(=O)Nc3ccc(Br)c(C)c3)ccc21", "note": "(stereo not drawn)", "Potency": "inactive"}
{"smiles": "COc1ccc2c(c1)nc(N)n2Cc1ccccc1", "Potency": "inconclusive: 0.158 µM [inhibitor, full curve, poor fit]"}
{"smiles": "Cc1oc(C(=O)O)cc1CSc1nnc(-c2ccccc2)n1C", "Potency": "inconclusive: 79.4 µM [inhibitor, partial curve]"}
{"smiles": "O=[N+]([O-])c1cccc2c(Br)[nH]nc12", "Potency": "inactive"}
{"smiles": "COc1ccc(C(=O)O/N=C(/c2ccccc2)c2ccncc2)cc1OC", "Potency": "inconclusive: 44.7 µM [inhibitor, partial curve, poor fit]"}
{"smiles": "CCOc1cc2[nH]c(=S)n(CC3CCCO3)c(=O)c2cc1OCC", "note": "(stereo not drawn)", "Potency": "inconclusive: 0.141 µM [inhibitor, full curve, poor fit]"}
{"smiles": "O=[N+]([O-])c1cccc(CSc2nnc3ccccn23)c1", "Potency": "inconclusive: 100 µM [inhibitor, single point]"}
{"smiles": "Cc1ccc(C#CC[N+]2(C)CCCCC2)cc1", "Potency": "inconclusive: 22.4 µM [inhibitor, single point]"}
{"smiles": "Cc1nc(CC(=O)c2ccc(O)cc2O)cs1", "Potency": "inconclusive: 89.1 µM [inhibitor, single point]"}
{"smiles": "COc1cc(-c2nc(Cc3c(F)cccc3Cl)no2)cc(OC)c1OC", "Potency": "inconclusive: 3.16 µM [inhibitor, full curve, poor fit]"}
{"smiles": "Cc1cccc(NC(=O)CSc2ncnc3sc(C)c(C)c23)n1", "activity change, negative = inhibition": "inconclusive: -56.2% [inhibitor]"}
{"smiles": "Cc1ccc2nc(COc3ccccc3NC(=O)c3ccc(F)cc3)cc(=O)n2c1", "Potency": "inconclusive: 89.1 µM [inhibitor, single point]"}
{"smiles": "CCOc1ccc(NS(=O)(=O)c2ccc3c(c2)CCCN3C(=O)C2CCC2)cc1", "Potency": "inactive"}
{"smiles": "Cc1ccc(NC(=O)CSc2cn(CC(=O)N3CCCC3)c3ccccc23)cc1Cl", "Potency": "inactive"}
{"smiles": "O=[N+]([O-])c1cccc(/C=C/c2nc[nH]c2[N+](=O)[O-])c1", "Potency": "inconclusive: 22.4 µM [inhibitor, single point]"}
{"smiles": "Cc1nc2c(nnn2Cc2ccccc2Cl)c(=O)[nH]1", "Potency": "inactive"}
{"smiles": "CCC(CC)c1nnc(NC(=O)Oc2ccccc2)s1", "Potency": "inconclusive: 11.2 µM [inhibitor, partial curve]"}
{"smiles": "Cc1csc2nc(COc3cccc(NC(=O)c4ccccc4F)c3)cc(=O)n12", "Potency": "inconclusive: 22.4 µM [inhibitor, partial curve, poor fit]"}
{"smiles": "Cc1ccc(/C=C2\\SC(=S)N(CCC(=O)NNC(=O)c3ccccc3O)C2=O)cc1", "Potency": "inconclusive: 0.112 µM [inhibitor, full curve, poor fit]"}
{"smiles": "Cc1nn(CC(=O)N2CCN(c3ccc(Cl)cc3)CC2)c(=O)c2cccn12", "Potency": "inconclusive: 0.355 µM [inhibitor, full curve]"}
{"smiles": "Cc1ccc(/C=N/NC(=O)c2nnn(-c3nonc3N)c2CN(C)c2ccccc2)s1", "Potency": "inconclusive: 35.5 µM [inhibitor, single point]"}
{"smiles": "Cc1cccc(NC(=O)c2ccc(C3SCC(=O)N3CCc3ccccc3)cc2)c1", "note": "(stereo not drawn)", "Potency": "inconclusive: 79.4 µM [inhibitor, single point]"}
{"smiles": "CC(C)(C)C1CCc2oc3ccc(NS(=O)(=O)c4ccc(C(=O)O)cc4)cc3c2C1", "note": "(stereo not drawn)", "Potency": "inconclusive: 22.4 µM [inhibitor, full curve]"}
{"smiles": "O=C(Nc1cnc(N2CCN(c3ccccc3)CC2)c(C(=O)O)c1)c1cccs1", "Potency": "inconclusive: 20 µM [inhibitor, full curve, poor fit]"}
{"smiles": "C/C=C/c1ccc(OCCCCOc2ccccc2C(C)=O)c(OC)c1", "Potency": "inconclusive: 3.98 µM [inhibitor, single point]"}
{"smiles": "CC(C)c1nnc(SCC(=O)NC2CCCCC2)n1C", "Potency": "inconclusive: 89.1 µM [inhibitor, single point]"}
{"smiles": "COc1ccc(N2CCN(C(=O)CSc3n[nH]c(-c4ccccc4Cl)n3)CC2)cc1", "Potency": "inconclusive: 100 µM [inhibitor, single point]"}
{"smiles": "Cc1ccc(C(=O)c2cn(Cc3ccc(Cl)cc3)c3nc(C)ccc3c2=O)cc1", "Potency": "inactive"}
{"smiles": "COc1cc(-c2nnc(SCc3cc(=O)oc4cc(O)c(O)cc34)o2)cc(OC)c1OC", "Potency": "active: 0.891 µM"}
{"smiles": "N#Cc1c(-c2ccccc2)nc(SCc2ccc([N+](=O)[O-])cc2)[nH]c1=O", "Potency": "inconclusive: 89.1 µM [inhibitor, single point]"}
{"smiles": "O=C(O)c1cccc(-n2cccc2/C=C2/NC(=O)N(c3cccc(Cl)c3)C2=O)c1", "activity change, negative = inhibition": "inconclusive: -133% [inhibitor]"}
{"smiles": "Cc1ccc(OCc2nc(-c3ccc(C(=O)NCc4ccc(OC(C)C)cc4)cc3)oc2C)cc1", "Potency": "inconclusive: 0.708 µM [inhibitor, single point]"}
{"smiles": "O=C1NC(c2ccc(Br)cc2)=N/C1=C/c1ccco1", "Potency": "inconclusive: 15.8 µM [inhibitor, full curve, poor fit]"}
{"smiles": "Oc1ccc2ccccc2c1Br", "Potency": "inconclusive: 6.31 µM [inhibitor, full curve, poor fit]"}
{"smiles": "O=C(Nc1ccccc1)c1cccc(C(=O)Nc2ccccc2)n1", "Potency": "inconclusive: 0.158 µM [inhibitor, full curve, poor fit]"}
{"smiles": "CCN(c1ccccc1)S(=O)(=O)c1nnc(NC(=O)COc2cccc(C)c2)s1", "Potency": "inactive"}
{"smiles": "COc1ccc(/C=C2\\SC(=O)N(CC(=O)Nc3ccc(O)cc3)C2=O)cc1OC", "Potency": "inactive"}
{"smiles": "Cc1ccc(CNC(=O)CCC2CCCN(Cc3c(C)nn(C(C)C)c3C)C2)o1", "note": "(stereo not drawn)", "Potency": "inconclusive: 0.126 µM [inhibitor, full curve, poor fit]"}
{"smiles": "Cc1ccc(OCC2Cn3c(nc4c3c(=O)[nH]c(=O)n4C)O2)cc1C", "note": "(stereo not drawn)", "Potency": "inactive"}
{"smiles": "Cc1cc(NC(=O)CN2C(=O)c3cccnc3Sc3ccccc32)ccc1Br", "Potency": "inactive"}
{"smiles": "CC(=O)n1cc(C2C(=O)CCCC2=O)c2ccccc21", "Potency": "inconclusive: 89.1 µM [inhibitor, single point]"}
{"smiles": "Cc1cc(C)cc(-n2c(C)cc(/C=N\\NC(=O)COc3cccc4cccnc34)c2C)c1", "Potency": "inconclusive: 39.8 µM [inhibitor, single point]"}
{"smiles": "CN(C)CCNc1oc(-c2ccc(COc3ccc(Cl)cc3)o2)nc1C#N", "Potency": "inactive"}
{"smiles": "CC(C)c1ccc(NC(=O)CSc2nc3ccsc3c(=O)n2Cc2ccc(C(=O)O)cc2)cc1", "Potency": "inconclusive: 89.1 µM [inhibitor, single point]"}
{"smiles": "Cc1cc(C)cc(Oc2nc3c(C)cccn3c(=O)c2/C=C(\\C#N)c2nc3ccccc3s2)c1", "Potency": "inconclusive: 63.1 µM [inhibitor, single point]"}
{"smiles": "COc1ccc(CCNC(=O)C(C)n2c(=O)cc(C(F)(F)F)c3c(C)nn(C)c32)cc1OC", "note": "(stereo not drawn)", "Potency": "inactive"}
